Measurements reported in publication PMC12344264, “Mechanistic, in-silico and in vitro studies with nitrofurans reveal potent leishmanicidal activity and inhibition of trypanothione reductase” (International Journal for Parasitology: Drugs and Drug …, 2025).

Experiments:
S. typhimurium TA98 = test: Ames mutagenicity test (Ames 384-ISO Well Test); conditions: without S9 mix
S. typhimurium TA100 = test: Ames mutagenicity test (Ames 384-ISO Well Test); conditions: without S9 mix
[1] = Cytotoxicity in primary splenocytes, alamarBlue, 72 h; type: cell-based; conditions: mouse, uninfected mice
Description: (§1) For cytotoxicity tests, several mammalian cell lines were used. […] Primary cell cultures were also used to evaluate cytotoxicity. […] BMDM cells were differentiated for one week with 30 % […] from L929 cell line.
(§2) The in vitro cytotoxicity of the selected nitrofurans was evaluated in HepG2, RAW 264.7 cells, splenocytes and BMDM. In each well of a 96-well microtitre plate, 100 μL containing 10,000 HepG2 or RAW 264.7 cells were incubated for 24h at 37 °C and 5 % CO2 to allow the cells to settle. For primary cells, 100 μL containing 100,000 BMDM or 1,000,000 splenocytes were added to each well. Subsequently, […] of one-half serial dilutions of each compound diluted in DMEM (for HepG2 cells), RPMI medium (for RAW cells), splenocyte medium (for splenocytes) or BMDM medium supplemented with 10 % GM-CSF (for BMDM), were added to each well. The cytotoxic effect of the compounds was measured after 72 h of incubation at 37 °C and 5 % CO2. […] Fluorescence was measured using a Varioskan Lux spectrophotometer (ThermoFisher Scientific, Waltham, MA, USA). […]
(§3) All experiments were carried out in triplicate and included at least three technical replicates. […] The SI was calculated from the CC50/EC50 ratio.

[2] = Cytotoxicity, alamarBlue, 72 h; type: cell-based; conditions: human, read-out: HepG2 cells CC50
Description: as §1, §2, §3

Q: What does the source list for `O=C1OCCN1/N=C/c1ccc([N+](=O)[O-])o1` [Furazolidone]?
A: Mutagenic effect TA98 (S. typhimurium TA98; 0.025 μM): + (0.01); Mutagenic effect TA98 (S. typhimurium TA98; 0.05 μM): + (0.05); Mutagenic effect TA98 (S. typhimurium TA98; 0.1 μM): + (0.05); Mutagenic effect TA98 (S. typhimurium TA98; 1.00 μM): - ^b; Mutagenic effect TA98 (S. typhimurium TA98; 10.0 μM): - ^b; Mutagenic effect TA100 (S. typhimurium TA100; 0.025 μM): + (0.001); Mutagenic effect TA100 (S. typhimurium TA100; 0.05 μM): + (0.001); Mutagenic effect TA100 (S. typhimurium TA100; 0.1 μM): + (0.05); Mutagenic effect TA100 (S. typhimurium TA100; 1.00 μM): - ^b; Mutagenic effect TA100 (S. typhimurium TA100; 10.0 μM): - ^b; CC50 at 72 h [1]: 44.8 ± 3.93 µM; CC50 at 72 h [2]: 42.5 ± 6.81 µM
